Measurements taken from paper PMC3975076, “High-throughput binding characterization of RNA aptamer selections using a microplate-based multiplex microcolumn device”.
Construct, isoform or probe ends are uncertain for at least one entry. For some of these results: Protein sequences can lack the tags named with them.

The chains behind the UniProt entries cited, without tags or fusion partners. Where a name states a change or a piece, a line headed by the entry shows the natural chain unless it says otherwise.
UniProt Q00613: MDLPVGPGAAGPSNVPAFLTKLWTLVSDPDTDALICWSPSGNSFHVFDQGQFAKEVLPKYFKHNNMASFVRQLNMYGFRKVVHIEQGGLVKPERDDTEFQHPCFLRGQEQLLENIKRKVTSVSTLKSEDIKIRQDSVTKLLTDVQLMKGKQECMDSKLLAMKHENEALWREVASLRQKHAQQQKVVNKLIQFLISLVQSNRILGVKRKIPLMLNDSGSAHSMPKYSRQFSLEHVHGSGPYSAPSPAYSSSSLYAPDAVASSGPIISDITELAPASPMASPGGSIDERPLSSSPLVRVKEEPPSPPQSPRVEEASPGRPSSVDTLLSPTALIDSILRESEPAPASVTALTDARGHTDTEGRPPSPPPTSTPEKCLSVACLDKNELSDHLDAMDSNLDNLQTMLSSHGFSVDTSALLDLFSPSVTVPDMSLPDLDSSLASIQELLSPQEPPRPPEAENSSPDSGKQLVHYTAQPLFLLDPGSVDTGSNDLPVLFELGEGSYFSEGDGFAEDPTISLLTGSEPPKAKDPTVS

Tests used:
Experiment in all cases: affinity microcolumn + qPCR
NELF-E (Drosophila) = target: T1, NELF-E (Drosophila) (UniProt P92204); conditions: serial: 4.75 nM N70 library + 50 pM each aptamer/BBS, 1 mL, recombinant protein, protein details: His6
T1 sequence (looked up, limits assumed): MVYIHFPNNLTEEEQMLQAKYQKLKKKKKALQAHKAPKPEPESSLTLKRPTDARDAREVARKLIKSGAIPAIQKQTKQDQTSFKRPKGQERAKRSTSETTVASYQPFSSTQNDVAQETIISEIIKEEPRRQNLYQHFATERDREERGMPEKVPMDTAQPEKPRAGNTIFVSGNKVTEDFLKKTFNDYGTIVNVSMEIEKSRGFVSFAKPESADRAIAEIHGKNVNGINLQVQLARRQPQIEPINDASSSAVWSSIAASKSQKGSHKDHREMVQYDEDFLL

GFP = conditions: value is average over all 7 other targets; serial: 4.75 nM N70 library + 50 pM each aptamer/BBS, 1 mL; recombinant protein; protein details: His6; counted as no binding
[1] = target: hHSF1 (heat shock factor 1) (human) (UniProt Q00613); conditions: serial: 4.75 nM N70 library + 50 pM each aptamer/BBS, 1 mL, recombinant protein, protein details: GST
UBLCP1 = conditions: average of Ni-NTA targets, serial: 4.75 nM N70 library + 50 pM each aptamer/BBS, 1 mL, recombinant protein, protein details: His
[2] = value is average over all 7 other targets, counted as no binding
[3] = average of non-Ni-NTA targets, background

| Sequence | binding signal (fold enrichment over N70 library) (NELF-E (Drosophila); [2]) | binding signal (fold enrichment over N70 library) (GFP) | binding signal (fold enrichment over N70 library) [1, 3] | binding signal (fold enrichment over N70 library) [1, 2] | also measured |
| --- | --- | --- | --- | --- | --- |
| GGGAAUGGAUCCACAUCUACGAAUUCAAUCAAGUCCCCAGACUCAGCAACACUGGACAGCGAUAUGCAGAUAACCAAGACCAAUUCACUCCAGUUCACUGCAGACUUGACGAAGCUU [HSFapt] | 2 | 2 |  |  | binding signal (fold enrichment over N70 library) ([1]; hHSF1 0.6 ug/uL resin, serial): 232 |
| GGGAAUGGAUCCACAUCUACGAAUUCCGCAGGGCUAGCCGCAUGCUCAGGCCUGGCGGGUAGGGAGUUAGGGUAGGGAGACCAGGAGAGCUGGCUUCACUGCAGACUUGACGAAGCUU [BBS1] |  |  | 1.7 |  | binding signal (fold enrichment over N70 library) (UBLCP1; attributed to resin): 5.1; binding signal (fold enrichment over N70 library) (NELF-E (Drosophila); average of Ni-NTA targets, attributed to resin): 5.1 |
| GGGAAUGGAUCCACAUCUACGAAUUCCGAAGCUCGUGACGGUACCUCCUAAAAUGUCCAUGGGGAAGGGAGGGAAUGGGAAGGACAAUCGGACACCGUUCACUGCAGACUUGACGAAGCUU [BBS2] |  |  | 13 |  | binding signal (fold enrichment over N70 library) (UBLCP1; attributed to Ni-NTA resin): 311; binding signal (fold enrichment over N70 library) (NELF-E (Drosophila); average of Ni-NTA targets, attributed to Ni-NTA resin): 311 |
| GGGAAUGGAUCCACAUCUACGAAUUCCCAACGACUGCCGAGCGAGAUUACGCUUGAGCGCCCCACUGAGGAUGCCCACGGGCGAUUGGGGCACGGCUUCACUGCAGACUUGACGAAGCUU [NELFapt] |  | 1.6 |  | 1.6 |  |
| AGCUUCUGGACUGCGAUGGGAGCACGAAACGUCGUGGCGCAAUUGGGUGGGGAAAGUCCUUAAAAGAGGGCCACCACAGAAGCU [GFPapt (AP3-1)] | 0.6 |  |  | 0.6 |  |
